Measured data: PubChem BioAssay AID743121 (NCATS, 2013)

- Assay: 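Genes whose silencing strengthens cell killing by camptothecin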 (primary screen)
- Cells: MDA-MB-231 cells, a human breast cancer line
- Reagents: single siRNA against human genes, 20 nM siRNA (0.8 pmol per well)
- Timing: 120 h (drug added 48 h after transfection, read 72 h later)
- Conditions: camptothecin 20 nM (about EC30) for 72 h; vehicle 0.1% DMSO in parallel plates
- Detection: 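CellTiter-Glo ATP signal, scaled to control siRNA as percent viability; sensitisation given as log2 of untreated divided by camptothecin-treated viability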
- Direction: log2 vehicle/camptothecin viability: higher = stronger sensitisation to camptothecin
- Call rule: 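Active genes have an RSA gene-level p-value below 0.001, computed from the ratios of their separate siRNAs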
The whole screen tested about 26,000 reagents; this is a part drawn at random. Of all reagents, 167 (0.63%) are marked active. 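Calls are per gene from RSA p-values that are not deposited; an individual active-marked siRNA can sensitise only weakly.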 Reagents against one gene are numbered here. Further read-outs or replicates are left out here. Reagent sequences are not shown.

For VBP1 #1, how do the results read?
log2 vehicle/camptothecin viability: -0.0306; Outcome: inactive

For VBP1 #2, what was measured?
log2 vehicle/camptothecin viability: -0.14; Outcome: inactive

Which result is listed for VBP1 #3?
log2 vehicle/camptothecin viability: -0.342; Outcome: inactive

What did the screen give for VBP1 #4?
log2 vehicle/camptothecin viability: -0.493; Outcome: inactive

What is on record for CDK18 #1?
log2 vehicle/camptothecin viability: -0.226; Outcome: inactive

Which result is listed for CDK18 #2?
log2 vehicle/camptothecin viability: 0.0782; Outcome: inactive

What did the screen give for CDK18 #3?
log2 vehicle/camptothecin viability: 0.174; Outcome: inactive

Which result is listed for CDK18 #4?
log2 vehicle/camptothecin viability: -0.231; Outcome: inactive

With MDM4 #1, what does the deposit list?
log2 vehicle/camptothecin viability: -0.504; Outcome: inactive

For MDM4 #2, how do the results read?
log2 vehicle/camptothecin viability: 0.058; Outcome: inactive

How did the screen score MDM4 #3?
log2 vehicle/camptothecin viability: -0.613; Outcome: inactive

Which result is listed for MDM4 #4?
log2 vehicle/camptothecin viability: -0.306; Outcome: inactive

What did the screen give for SUMO1 #1?
log2 vehicle/camptothecin viability: -0.317; Outcome: inactive

For SUMO1 #2, what does the deposit list?
log2 vehicle/camptothecin viability: 0.0122; Outcome: inactive

For SUMO1 #3, how do the results read?
log2 vehicle/camptothecin viability: -0.412; Outcome: inactive

How did the screen score SUMO1 #4?
log2 vehicle/camptothecin viability: -0.243; Outcome: inactive

Single entries from the list:
Under “log2 vehicle/camptothecin viability”, CDK18 #1 has -0.226
CDK18 #3, log2 vehicle/camptothecin viability = 0.174
